The supplement of paper PMC4604168 (melanoma cell lines)
The other results are listed elsewhere or left out. Many values rest on one well or one pass, so single values are uncertain.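 Cells were imaged in 1,536-well plates, and nuclei stained with an antibody against cleaved PARP were counted against all DNA-stained nuclei to give the apoptosis fraction. Screening doses were chosen to leave most cells alive, and resting and induced cleaved-PARP levels differ strongly between cell lines.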

Each compound was assayed on UACC62 (assay: cleaved PARP positive nuclei fraction relative to DMSO control; melanoma cells; higher = more apoptosis). Conditions: library dose: low library concentration; 72 h.

SMILES | cleaved PARP positive nuclei fraction [%]
Cn1c(Nc2ccc(C(F)(F)F)cc2)nc2cc(Oc3ccnc(-c4ncc(C(F)(F)F)[nH]4)c3)ccc21 + COCC[n+]1c2c(n(Cc3cnccn3)c1C)C(=O)c1ccccc1C2=O [YM155] (first compound 0.08 µM, partner dose 0.0004 µM) | 95.5
Clc1ccc(Nc2nnc(Cc3ccncc3)c3ccccc23)cc1 [vatalanib] + C#Cc1cccc(Nc2ncnc3cc(OCCOC)c(OCCOC)cc23)c1 [erlotinib] (first compound 2 µM, partner dose 0.8 µM) | 126
C=CCNC1=C2C[C@@H](C)C[C@H](OC)[C@H](O)[C@@H](C)/C=C(\C)[C@H](OC(N)=O)[C@@H](OC)/C=C\C=C(/C)C(=O)NC(=CC1=O)C2=O [Tanespimycin] + CC(C)CCN1c2nc(Nc3cc(F)c(O)c(F)c3)ncc2N(C)C(=O)C1C [BID1870] (first compound 0.002 µM, partner dose 0.2 µM) | 168

These compounds were tested on WM115 in the same assay as above. Conditions: library dose: low library concentration; 72 h.

SMILES | cleaved PARP positive nuclei fraction [%]
CC(=O)c1c(C)c2cnc(Nc3ccc(N4CCNCC4)cn3)nc2n(C2CCCC2)c1=O [palbociclib] + Nc1cccc2c1CN(C1CCC(=O)NC1=O)C2=O [lenalidomide] (first compound 0.04 µM, partner dose 1 µM) | 159
CC(=O)c1c(C)c2cnc(Nc3ccc(N4CCNCC4)cn3)nc2n(C2CCCC2)c1=O [palbociclib] + COc1ccc(Cl)c(Nc2nc3ccccc3nc2NS(=O)(=O)c2cccc(NC(=O)C(C)(C)N)c2)c1 [XL147] (first compound 0.04 µM, partner dose 0.8 µM) | 96.1
CC(=O)c1c(C)c2cnc(Nc3ccc(N4CCNCC4)cn3)nc2n(C2CCCC2)c1=O [palbociclib] + Cc1nc(Nc2ncc(C(=O)Nc3c(C)cccc3Cl)s2)cc(N2CCN(CCO)CC2)n1 [dasatanib] (first compound 0.04 µM, partner dose 0.004 µM) | 101
C=CCNC1=C2C[C@@H](C)C[C@H](OC)[C@H](O)[C@@H](C)/C=C(\C)[C@H](OC(N)=O)[C@@H](OC)/C=C\C=C(/C)C(=O)NC(=CC1=O)C2=O [Tanespimycin] + COc1ccc(Cl)c(Nc2nc3ccccc3nc2NS(=O)(=O)c2cccc(NC(=O)C(C)(C)N)c2)c1 [XL147] (first compound 0.002 µM, partner dose 0.8 µM) | 159
OCc1c[nH]c2ccccc12 [Indole-3-carbinol] + C#Cc1cccc(Nc2ncnc3cc(OCCOC)c(OCCOC)cc23)c1 [erlotinib] (first compound 0.8 µM, partner dose 0.8 µM) | 169
CC(=O)c1c(C)c2cnc(Nc3ccc(N4CCNCC4)cn3)nc2n(C2CCCC2)c1=O [palbociclib] + C[C@]1(c2nc3c(C(N)=O)cccc3[nH]2)CCCN1 [Veliparib] (first compound 0.04 µM, partner dose 1.4 µM) | 104
C=CCNC1=C2C[C@@H](C)C[C@H](OC)[C@H](O)[C@@H](C)/C=C(\C)[C@H](OC(N)=O)[C@@H](OC)/C=C\C=C(/C)C(=O)NC(=CC1=O)C2=O [Tanespimycin] + C#Cc1cccc(Nc2ncnc3cc(OCCOC)c(OCCOC)cc23)c1 [erlotinib] (first compound 0.002 µM, partner dose 0.8 µM) | 92.8
C=CCNC1=C2C[C@@H](C)C[C@H](OC)[C@H](O)[C@@H](C)/C=C(\C)[C@H](OC(N)=O)[C@@H](OC)/C=C\C=C(/C)C(=O)NC(=CC1=O)C2=O [Tanespimycin] + Clc1ccc(Nc2nnc(Cc3ccncc3)c3ccccc23)cc1 [vatalanib] (first compound 0.002 µM, partner dose 2 µM) | 198
COCC[n+]1c2c(n(Cc3cnccn3)c1C)C(=O)c1ccccc1C2=O + Nc1cccc2c1CN(C1CCC(=O)NC1=O)C2=O [lenalidomide] (first compound 0.0004 µM, partner dose 1 µM) | 240
C#Cc1cccc(Nc2ncnc3cc(OCCOC)c(OCCOC)cc23)c1 [erlotinib] + C[C@]1(c2nc3c(C(N)=O)cccc3[nH]2)CCCN1 [Veliparib] (first compound 0.8 µM, partner dose 1.4 µM) | 86
CC(=O)c1c(C)c2cnc(Nc3ccc(N4CCNCC4)cn3)nc2n(C2CCCC2)c1=O [palbociclib] + C#Cc1cccc(Nc2ncnc3cc(OCCOC)c(OCCOC)cc23)c1 [erlotinib] (first compound 0.04 µM, partner dose 0.8 µM) | 108
Nc1cccc2c1CN(C1CCC(=O)NC1=O)C2=O (stereo unspecified) [lenalidomide] + COc1cc(Nc2ncc(F)c(Nc3ccc4c(n3)NC(=O)C(C)(C)O4)n2)cc(OC)c1OC [Tamatinib] (first compound 1 µM, partner dose 0.4 µM) | 158
C[C@]1(c2nc3c(C(N)=O)cccc3[nH]2)CCCN1 [Veliparib] + CC(C)(C)c1cnc(CSc2cnc(NC(=O)C3CCNCC3)s2)o1 [SNS-032] (first compound 1.4 µM, partner dose 0.01 µM) | 101
Cc1nc(Nc2ncc(C(=O)Nc3c(C)cccc3Cl)s2)cc(N2CCN(CCO)CC2)n1 [dasatanib] + Nc1cccc2c1CN(C1CCC(=O)NC1=O)C2=O [lenalidomide] (first compound 0.004 µM, partner dose 1 µM) | 65.9
CC(=O)c1c(C)c2cnc(Nc3ccc(N4CCNCC4)cn3)nc2n(C2CCCC2)c1=O [palbociclib] + OCc1c[nH]c2ccccc12 [Indole-3-carbinol] (first compound 0.04 µM, partner dose 0.8 µM) | 95.2
Clc1ccc(Nc2nnc(Cc3ccncc3)c3ccccc23)cc1 [vatalanib] + COCC[n+]1c2c(n(Cc3cnccn3)c1C)C(=O)c1ccccc1C2=O [YM155] (first compound 2 µM, partner dose 0.0004 µM) | 97.2
CC1(C)NC(=O)N(c2ccc([N+](=O)[O-])c(C(F)(F)F)c2)C1=O [nilutamide] + O=C(Nc1cccc(Cl)c1)Nc1ncc(CCNc2ncnc3ccsc23)s1 [SNS314] (first compound 1 µM, partner dose 0.0008 µM) | 413
Nc1cccc2c1CN(C1CCC(=O)NC1=O)C2=O (stereo unspecified) [lenalidomide] + C[C@]1(c2nc3c(C(N)=O)cccc3[nH]2)CCCN1 [Veliparib] (first compound 1 µM, partner dose 1.4 µM) | 92.3
OCc1c[nH]c2ccccc12 [Indole-3-carbinol] + COc1ccc(Cl)c(Nc2nc3ccccc3nc2NS(=O)(=O)c2cccc(NC(=O)C(C)(C)N)c2)c1 [XL147] (first compound 0.8 µM, partner dose 0.8 µM) | 117
CC(=O)c1c(C)c2cnc(Nc3ccc(N4CCNCC4)cn3)nc2n(C2CCCC2)c1=O [palbociclib] + Clc1ccc(Nc2nnc(Cc3ccncc3)c3ccccc23)cc1 [vatalanib] (first compound 0.04 µM, partner dose 2 µM) | 83.4
Cn1nnc2c(C(N)=O)ncn2c1=O [temozolomide] + C[C@@H]1CCN(C(=O)CC#N)C[C@@H]1N(C)c1ncnc2[nH]ccc12 [CP690550] (first compound 2 µM, partner dose 1 µM) | 135
Cc1nc(Nc2ncc(C(=O)Nc3c(C)cccc3Cl)s2)cc(N2CCN(CCO)CC2)n1 [dasatanib] + Cn1nnc2c(C(N)=O)ncn2c1=O [temozolomide] (first compound 0.004 µM, partner dose 2 µM) | 188
OCc1c[nH]c2ccccc12 [Indole-3-carbinol] + COCC[n+]1c2c(n(Cc3cnccn3)c1C)C(=O)c1ccccc1C2=O [YM155] (first compound 0.8 µM, partner dose 0.0004 µM) | 123
Clc1ccc(Nc2nnc(Cc3ccncc3)c3ccccc23)cc1 [vatalanib] + C=CCn1c(=O)c2cnc(Nc3ccc(N4CCN(C)CC4)cc3)nc2n1-c1cccc(C(C)(C)O)n1 [MK1775] (first compound 2 µM, partner dose 0.02 µM) | 153
C#Cc1cccc(Nc2ncnc3cc(OCCOC)c(OCCOC)cc23)c1 [erlotinib] + COCC[n+]1c2c(n(Cc3cnccn3)c1C)C(=O)c1ccccc1C2=O [YM155] (first compound 0.8 µM, partner dose 0.0004 µM) | 106
Cc1nc(Nc2ncc(C(=O)Nc3c(C)cccc3Cl)s2)cc(N2CCN(CCO)CC2)n1 [dasatanib] + Cn1c(Nc2ccc(C(F)(F)F)cc2)nc2cc(Oc3ccnc(-c4ncc(C(F)(F)F)[nH]4)c3)ccc21 [CHIR265] (first compound 0.004 µM, partner dose 0.08 µM) | 896
CC(C)(C)c1cnc(CSc2cnc(NC(=O)C3CCNCC3)s2)o1 + Cc1cc(N2CCOCC2)cc2[nH]c(-c3c(NC[C@@H](O)c4cccc(Cl)c4)cc[nH]c3=O)nc12 [BMS536924] (first compound 0.01 µM, partner dose 0.2 µM) | 58.1
OCc1c[nH]c2ccccc12 [Indole-3-carbinol] + Nc1cccc2c1CN(C1CCC(=O)NC1=O)C2=O [lenalidomide] (first compound 0.8 µM, partner dose 1 µM) | 83.9

Copied from the list.
Entry for C=CCNC1=C2C[C@@H](C)C[C@H](OC)[C@H](O)[C@@H](C)/C=C(\C)[C@H](OC(N)=O)[C@@H](OC)/C=C\C=C(/C)C(=O)NC(=CC1=O)C2=O [Tanespimycin] + C#Cc1cccc(Nc2ncnc3cc(OCCOC)c(OCCOC)cc23)c1 [erlotinib] (first compound 0.002 µM, partner dose 0.8 µM) under cleaved PARP positive nuclei fraction [%]: 92.8
Entry for C[C@]1(c2nc3c(C(N)=O)cccc3[nH]2)CCCN1 [Veliparib] + CC(C)(C)c1cnc(CSc2cnc(NC(=O)C3CCNCC3)s2)o1 [SNS-032] (first compound 1.4 µM, partner dose 0.01 µM) under cleaved PARP positive nuclei fraction [%]: 101
